The structures appear in SMILES notation. Structures can show the parent of a compound that is named as a salt. Some of the results follow. This data set is noisy: repeats of one test often differ as much as different tests do.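 Human embryonic kidney cells were transiently transfected with a plasmid bearing a Renilla luciferase gene under the HSV-TK promoter. This first-round screen tests roughly ten thousand compounds for ones that increase reporter output.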

The subject of this experiment is HEK 293FT. In words: log relative Renilla luciferase luminescence (reporter expression vs reference, reference not stated) (log (base not stated)); higher = higher recombinant reporter expression. Particulars: 10 µM; time after transfection 48 h.
Turning to `CCN(CC)C(=O)C1(c2ccccc2)CC1CN` (stereo not given) [milnacipran hydrochloride], the log is 0.0866.

Turning to `CCN(CCCCOC(=O)c1ccc(OC)c(OC)c1)C(C)Cc1ccc(OC)cc1` (stereo not given) [mebeverine hydrochloride], the log worked out at 0.00335.

Consider `CC#CCn1c(N2CCC[C@@H](N)C2)nc2c1c(=O)n(Cc1nc(C)c3ccccc3n1)c(=O)n2C` [linagliptin], for which the log is -0.0427.

For the molecule `CCN(CC)CCOCCOC(=O)C1(c2ccccc2)CCCC1` [carbetapentane citrate], the log amounted to 0.063.

Consider `Cc1cc(O)c2c(c1O)C(=O)c1c(O)cc(C)c(O)c1C2=O` [1,4,5,8-tetrahydroxy-2,6-dimethylanthroquinone], for which the log was determined as 0.0279.

As to `COc1cc(OC)c2ccc(=O)oc2c1` [citropten], the log was 0.0913.

As for `O=C(CCBr)N1CCN(C(=O)CCBr)CC1` [pipobroman], the log was -0.566.

Take `CCCCC1C(=O)N(c2ccccc2)N(c2ccc(O)cc2)C1=O` (stereo not given) [oxyphenbutazone]: the log was -0.0548.

Turning to `N[C@H]1CONC1=O` [levcycloserine], the log is 0.0656.

`O=C(O)c1cc(=O)c(O)c2c(O)c(O)c(O)cc2c1` [purpurogallin-4-carboxylic acid]: the log came to 0.104.

As to `O=c1c(O)c(-c2ccc(O)cc2)oc2cc(O)cc(O)c12` [kaempferol], the log was -0.0136.

Turning to `COc1cc2nc(N3CCN(C(=O)C4COc5ccccc5O4)CC3)nc(N)c2cc1OC` (stereo not given) [doxazosin mesylate], the log was -0.16.

Regarding `CC(=O)Nc1ccc(OC(=O)c2ccccc2O)cc1` [acetaminosalol], the log was determined as 0.0354.

In the case of `COC(=O)C1=CO[C@@H](O[C@@H]2O[C@H](CO)[C@@H](O)[C@H](O)[C@H]2O)[C@H]2[C@@H]1C(=O)C[C@@H]2C` [verbenalin], the log stood at 0.0273.

Consider `COC(=O)C[C@H]1C2(C)CC34OC5(C)O[C@@]6([C@H](OC(C)=O)C(OC(C)=O)[C@]7(C)C(/C(=C(/O)C(C)C)C(=O)O[C@H]7c7ccoc7)[C@@]6(O5)[C@H](OC(C)=O)[C@@]3(O)C2OC(=O)C(C)C)[C@]14C` (stereo not given in full) [bussein], for which the log is 0.0894.

`CCCOc1ccccc1-c1nc2[nH]nnc2c(=O)[nH]1` [zaprinast]: the log was -0.0677.

As to `CCCCCCNC(=O)n1cc(F)c(=O)[nH]c1=O` [carmofur], the log stood at 0.0261.

For the molecule `COc1ccc(Cl)cc1C(=O)NCCc1ccc(S(=O)(=O)NC(=O)NC2CCCCC2)cc1` [glyburide], the log was -0.121.

`CC#C[C@]1(O)CC[C@H]2[C@@H]3CCC4=CC(=O)CCC4=C3[C@@H](c3ccc(N(C)C)cc3)C[C@@]21C` [mifepristone]: the log is -0.288.

In the case of `COc1cc(O)c2c(=O)c(OC)c(-c3ccc(OC)c(OC)c3)oc2c1` [retusin], the log is -0.0356.

Source of the values: the supplement of paper PMC7024190.
